No constants are given. Whether binding was seen depends on the method and setting. For some assays here: Binding seen in cells or lysates may run through a third protein. Some entries that bind do so weakly or less than the wild type.
Tests used:
[1] = molecular target: T1, HGFa (in mouse plasma) (mouse) (UniProt Q9R098); experiment: co-immunoprecipitation from mouse plasma with anti-human PCI IgG-Sepharose (IP: ANTI-PCI ANTIBODY), immunoblot with anti-HGFa antibody (WB: ANTI-HGFa ANTIBODY)
T1 sequence (looked up): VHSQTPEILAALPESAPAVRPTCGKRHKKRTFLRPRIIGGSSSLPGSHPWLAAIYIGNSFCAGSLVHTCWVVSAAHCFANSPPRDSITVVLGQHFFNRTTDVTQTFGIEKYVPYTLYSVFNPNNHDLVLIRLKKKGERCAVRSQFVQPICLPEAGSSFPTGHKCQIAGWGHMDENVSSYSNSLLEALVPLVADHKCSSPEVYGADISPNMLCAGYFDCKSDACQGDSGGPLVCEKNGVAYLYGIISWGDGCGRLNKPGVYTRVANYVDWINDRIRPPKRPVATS

[2] = molecular target: T1, HGFa (in mouse plasma) (mouse); experiment: immunoprecipitation from plasma with anti-human PCI antibody, Western blot with anti-HGFa antibody

binding [1]: binds
binding [2]: binds
B1: human PCI (protein, UniProt P05154 26-406, looked up)
chain: EMKKRVEDLHVGATVAPSSRRDFTFDLYRALASAAPSQSIFFSPVSISMSLAMLSLGAGSSTKMQILEGLGLNLQKSSEKELHRGFQQLLQELNQPRDGFQLSLGNALFTDLVVDLQDTFVSAMKTLYLADTFPTNFRDSAGAMKQINDYVAKQTKGKIVDLLKNLDSNAVVIMVNYIFFKAKWETSFNHKGTQEQDFYVTSETVVRVPMMSREDQYHYLLDRNLSCRVVGVPYQGNATALFILPSEGKMQQVENGLSEKTLRKWLKMFKKRQLELYLPKFSIEGSYQLEKVLPSLGISNVFTSHADLSGISNHSNIQVSEMVHKAVVEVDESGTRAAAATGTIFTFRSARLNSQRLVFNRPFLMFIVDNNILFLGKVNRP
